From US8486464B2, “Herbal composition for angina pectoris, method to prepare same and uses thereof” (Tasly Pharmaceutical Group Co. Ltd., priority 2000, dated 2013)
Where two headings read alike, the source gives them in different places. At least one compound was matched to its structure with a doubt left.

Test system: plasma ET

CCOC(=O)C1=C(COCCN)NC(C)=C(C(=O)OC)C1c1ccccc1Cl (centres unmarked) [Amlodipine]
DBF (after treatment (4 weeks)): 11.25 ± 0.68 kPa | DBF (before treatment): 12.85 ± 0.54 kPa
